Test results published in the supplement of paper PMC3334620.
Over roughly 33,000 sequences, “E-score (-0.5 to 0.5)” has its median near -8e-05; the highest 2% begin near 0.23. This is one part of the list.

These sequences were tested against T1, Nrg2 (UniProt P38082) (assay: PBM E-score (8-mer binding enrichment) (E-score (-0.5 to 0.5)); higher = stronger / more preferred TF binding). Settings: protein concentration: 100 nM; construct: GST-full length.
T1 sequence: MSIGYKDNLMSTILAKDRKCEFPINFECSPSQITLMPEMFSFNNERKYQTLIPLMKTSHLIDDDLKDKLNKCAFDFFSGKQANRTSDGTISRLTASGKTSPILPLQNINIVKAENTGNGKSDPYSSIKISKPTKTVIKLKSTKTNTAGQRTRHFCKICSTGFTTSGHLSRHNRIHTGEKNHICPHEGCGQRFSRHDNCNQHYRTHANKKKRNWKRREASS
Description: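 Universal 'all 10-mer' protein binding microarrays (Agilent AMADID 015681) probed with GST-tagged S. cerevisiae TFs (full-length or DBD) made by in vitro transcription/translation (PURExpress), about 100-200 nM. Bound TF was detected with fluorescent anti-GST. Each ungapped 8-mer (which stands for itself and its reverse complement) is scored by the PBM enrichment score (E-score), a modified Wilcoxon-Mann-Whitney statistic from -0.5 to +0.5, computed with the Universal PBM Analysis Suite. Scale: above 0.35 generally sequence-specific binding.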

| Sequence | PBM E-score |
| --- | --- |
| ACGCGTCC | -0.0132 |
| AGCATTTA | -0.232 |
| CTGGCAGC | -0.247 |
| CAAAATCG | 0.109 |
| GATAGGCC | -0.0419 |
| GATTACCC | 0.117 |
| ACGTCCCG | 0.0264 |
| CCTAAGGC | -0.191 |
| GACCCGAA | -0.0012 |
| AGTTCTGG | 0.0746 |
| CAATCATC | -0.0186 |
| GCGAGACA | -0.117 |
| GATTCGCA | 0.121 |
| CAATCATG | 0.0231 |
| ACCATGCA | 0.132 |
| AAGCCCAC | -0.14 |
| CTTCGCCA | -0.0564 |
| ACCGCCAT | 0.103 |
| CAATAATA | 0.117 |
| CCCAAACC | 0.0648 |
| CAGCCTTA | -0.231 |
| AAGTGGAA | 0.196 |

| Sequence | PBM E-score |
| --- | --- |
| CGAACCTC | -0.037 |
| ACTGGGCC | -0.132 |
| AACGGTGC | -0.0929 |
| AGCACCGC | 0.111 |
| AGCTGAAG | 0.0197 |
| AGGTGTTG | -0.0259 |
| TAGAAGCA | -0.0984 |
| GGAGTGAA | 0.0356 |
| GTGTCGGA | -0.00845 |
| TCATTCAA | 0.0872 |
| AACCATAA | 0.0871 |
| ACCGCACC | 0.0861 |
| CTGAGGGA | 0.0137 |
| GCAGTTTA | -0.0555 |
| GTACGCAA | -0.131 |
| CCCAAGTA | 0.0104 |
| CCCGGCAC | -0.331 |
| AATCAAGG | 0.21 |
| CTAGCAGA | -0.181 |
| GGGACCTA | 0.245 |
| AGAGTCTA | -0.158 |
| CGCACACG | -0.0461 |

| Sequence | PBM E-score |
| --- | --- |
| ATTGTGAC | 0.2 |
| GTCAAGAA | 0.216 |
| ATTTAAAA | 0.086 |
| GTCACCTA | -0.199 |
| GTCAGTCA | -0.113 |
| CTGTATAC | 0.0338 |
| ACGATTGC | 0.197 |
| ACTTAATC | -0.0933 |
| GGTATCAC | -0.0149 |
| GGCATCAC | -0.129 |
| ACAGATAC | 0.131 |
| ATACACAT | 0.109 |
| GTACAGCA | -0.139 |
| ACCTTAAA | 0.064 |
| AATTCGGT | 0.19 |
| AGCCTAGG | -0.197 |
| AGGTTTTC | 0.0486 |
| ACAAGGAT | -0.0601 |
| GAATAATA | 0.238 |
| GACGGTTA | -0.142 |
| CTGGTGAA | -0.151 |
| ACGGAACC | 0.0943 |

| Sequence | PBM E-score |
| --- | --- |
| CTACGTAC | -0.0598 |
| CATTATCG | -0.0577 |
| ATCGGTCA | -0.00087 |
| GGGAATAA | 0.178 |
| ATAAAAAG | 0.257 |
| AAAGCGAC | 0.0733 |
| CCTATACA | 0.0289 |
| ACGGGGGA | -0.175 |
| ACGACCCG | 0.168 |
| CCATCGCC | -0.0853 |
| CACGGTGC | -0.182 |
| GGATTTGA | -0.0324 |
| CGTCCCCA | -0.047 |
| CCGCTATC | 0.00946 |
| AATACGCC | -0.137 |
| AAAGCACT | 0.0856 |
| CTCTGCAC | -0.169 |
| GCTGGCCC | -0.0623 |
| CTTTACAC | 0.112 |
| CAGCAGAG | -0.128 |
